From paper PMC1716192, “A Plant-Derived Morphinan as a Novel Lead Compound Active against Malaria Liver Stages” (PLoS Medicine, 2006)

Columns and labels:
[1] = tested on: P. falciparum (NF 54 strain) hepatic stages; assay: In vitro assay for P. falciparum liver stage inhibition in primary human hepatocytes; type: cell-based; details: TC50 on human primary hepatocytes versus IC50
Description: P. yoelii (265 BY strain) and P. falciparum (NF 54 strain) sporozoites were obtained by dissection of infected Anopheles stephensi salivary glands. Primary mouse hepatocytes were isolated as previously described and seeded in eight-well Lab-Tek plastic chamber slides (VWR, Fontenay-sous-Bois, France) previously coated with rat-tail collagen I (BD Biosciences, Le Pont de Claix, France) at a density of 10^5 cells per well. Mouse hepatocytes were cultured at 37 °C in 5% CO2 in William's E medium supplemented with 10% fetal calf serum, 1% L-glutamine, 1% sodium pyruvate, 1% insulin-transferrin-selenium, 1% nonessential amino acids, and 1% penicillin-streptomycin (all from Invitrogen, Cergy-Pontoise, France), for 24 h before inoculation of P. yoelii sporozoites (10^5 per well). Human liver fragments were collected following informed consent provided from patients undergoing a partial hepatectomy. The collection and use of these tissues were undertaken in accordance with French Government ethical regulations. Primary human hepatocytes were isolated from the healthy parts of these liver biopsies as previously described. […] Parasites were quantified on the last day of incubation. For the in vitro timing experiments, tazopsine treatment of P. yoelii and P. falciparum cultures was undertaken for different periods during the cultivation: 0 h to 3 h, 3 h to 24 h, or 24 h to 48 h after P. yoelii sporozoite inoculation (quantification at 48 h), or 0 h to 2 d, or 3 d to 5 d after P. falciparum sporozoite inoculation (quantification at 5 d). […] Parasite numbers were counted under a fluorescence microscope with a 25× light microscope objective. […]
(§1) IC50 and TC50 were calculated by nonlinear regression using four-parameter logistic curves on the SigmaPlot 10.0 software (http://www.systat.com). Each IC50 or TC50 is expressed as a mean between two independent experiments, followed by the standard error of the mean.

[2] = tested on: P. yoelii (265 BY strain) hepatic stages; assay: In vitro assay for P. yoelii liver stage inhibition in primary mouse hepatocytes; type: cell-based; details: TC50 on mouse primary hepatocytes versus IC50
Description: P. yoelii (265 BY strain) and P. falciparum (NF 54 strain) sporozoites were obtained by dissection of infected Anopheles stephensi salivary glands. Primary mouse hepatocytes were isolated as previously described and seeded in eight-well Lab-Tek plastic chamber slides (VWR, Fontenay-sous-Bois, France) previously coated with rat-tail collagen I (BD Biosciences, Le Pont de Claix, France) at a density of 10^5 cells per well. Mouse hepatocytes were cultured at 37 °C in 5% CO2 in William's E medium supplemented with 10% fetal calf serum, 1% L-glutamine, 1% sodium pyruvate, 1% insulin-transferrin-selenium, 1% nonessential amino acids, and 1% penicillin-streptomycin (all from Invitrogen, Cergy-Pontoise, France), for 24 h before inoculation of P. yoelii sporozoites (10^5 per well). Human liver fragments were collected following informed consent provided from patients undergoing a partial hepatectomy. The collection and use of these tissues were undertaken in accordance with French Government ethical regulations. Primary human hepatocytes were isolated from the healthy parts of these liver biopsies as previously described. […] Parasites were quantified on the last day of incubation. For the in vitro timing experiments, tazopsine treatment of P. yoelii and P. falciparum cultures was undertaken for different periods during the cultivation: 0 h to 3 h, 3 h to 24 h, or 24 h to 48 h after P. yoelii sporozoite inoculation (quantification at 48 h), or 0 h to 2 d, or 3 d to 5 d after P. falciparum sporozoite inoculation (quantification at 5 d). […] Parasite numbers were counted under a fluorescence microscope with a 25× light microscope objective.
as §1

Row | SMILES | TI (therapeutic index) [1] | TI (therapeutic index) [2]
1 | COC1=C2[C@H]3NCC[C@]2(C[C@H](O)[C@@H]1O)c1c(ccc(OC)c1O)[C@H]3O [Tazopsine, tazopsine] | 7 | 14
2 | COC1=C2[C@@H]3[C@H](O)c4ccc(OC)c(O)c4[C@]2(CCN3C2CCCC2)C[C@H](O)[C@@H]1O [NCP-tazopsine, N-cyclopentyl-tazopsine] | 60 | 46
3 | COc1cc(NC(C)CCCN)c2ncccc2c1 (stereo not drawn) [Primaquine, reference compound] | 81 | 110
